Values from PubChem BioAssay AID1259405 (NCATS, 2018).
The deposit covers about 50,000 reagents; this is a part drawn at random. In the full data, about 4,000 (8%) were called active. 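Mouse siRNA library applied to hamster cells; one well for each siRNA.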 A number with no mark means an inactive call. The numbers tell different reagents against one gene apart.

Purpose: 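Knock-downs that lift recombinant protein yield in hamster ovary cells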 (primary screen)
Cells: Chinese hamster CHO-K1 ovary cells with stable secreted eGFP expression
Reagents: single siRNA against mouse genes, 0.8 pmol siRNA per well (2 µl of 400 nM stock)
Timing: 3 days
Measurement: 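Per-well intracellular GFP measured by laser scanning cytometry, plus viability from ATP luminescence, each relative to plate median of non-targeting control wells, in %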
Scale: GFP, % of control: higher = more GFP per well, higher productivity; viability (ATP), % of control: higher = more viable cells (more ATP)
Active means: 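a knock-down is called active if GFP reaches 120% or more of non-targeting control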

Arl6 #1: GFP, % of control = 116; viability (ATP), % of control = 70.3
Arl6 #2: GFP, % of control = 126 (active); viability (ATP), % of control = 71.7
Arl6 #3: GFP, % of control = 80.8; viability (ATP), % of control = 72.4
Wt1 #1: GFP, % of control = 98.1; viability (ATP), % of control = 85.5
Wt1 #2: GFP, % of control = 70; viability (ATP), % of control = 65.3
Wt1 #3: GFP, % of control = 80.8; viability (ATP), % of control = 69.3
Tmprss4 #1: GFP, % of control = 54.1; viability (ATP), % of control = 70.2
Tmprss4 #2: GFP, % of control = 62.3; viability (ATP), % of control = 71.5
Tmprss4 #3: GFP, % of control = 74.1; viability (ATP), % of control = 79.5
Ldah #1: GFP, % of control = 81.4; viability (ATP), % of control = 68.6
Ldah #2: GFP, % of control = 118; viability (ATP), % of control = 78.3
Ldah #3: GFP, % of control = 135 (active); viability (ATP), % of control = 90.7
Jdp2 #1: GFP, % of control = 104; viability (ATP), % of control = 85.9
Jdp2 #2: GFP, % of control = 66.4; viability (ATP), % of control = 61.4
Jdp2 #3: GFP, % of control = 109; viability (ATP), % of control = 99.5
Omd #1: GFP, % of control = 161 (active); viability (ATP), % of control = 133
Omd #2: GFP, % of control = 94.2; viability (ATP), % of control = 80.9
Omd #3: GFP, % of control = 88.1; viability (ATP), % of control = 89

As entered above.
Jdp2 #1, GFP, % of control = 104
Omd #2, GFP, % of control → 94.2
Value of Jdp2 #2 under “GFP, % of control”: 66.4
